These are yes or no findings as the source states them, for the method shown. Binding seen in cells or lysates may run through a third protein. Some binding calls cover weakened binding; strength is not graded here.
Tests used:
[1] = biological target: T1, mitochondrial monocarboxylate transporter 1 (mouse (endogenous in mouse skeletal muscle and C2C12 cells)) (UniProt P53986); test: co-IP; mitochondrial fractions (100 ug) from mouse skeletal muscle in Tris-EDTA with protease and phosphatase inhibitors, without a detergent; pre-cleared with Protein G magnetic beads and rabbit IgG; primary antibodies on Protein G magnetic beads, overnight at 4 C; five washes with PBS; SDS-PAGE and immunoblotting
T1 sequence: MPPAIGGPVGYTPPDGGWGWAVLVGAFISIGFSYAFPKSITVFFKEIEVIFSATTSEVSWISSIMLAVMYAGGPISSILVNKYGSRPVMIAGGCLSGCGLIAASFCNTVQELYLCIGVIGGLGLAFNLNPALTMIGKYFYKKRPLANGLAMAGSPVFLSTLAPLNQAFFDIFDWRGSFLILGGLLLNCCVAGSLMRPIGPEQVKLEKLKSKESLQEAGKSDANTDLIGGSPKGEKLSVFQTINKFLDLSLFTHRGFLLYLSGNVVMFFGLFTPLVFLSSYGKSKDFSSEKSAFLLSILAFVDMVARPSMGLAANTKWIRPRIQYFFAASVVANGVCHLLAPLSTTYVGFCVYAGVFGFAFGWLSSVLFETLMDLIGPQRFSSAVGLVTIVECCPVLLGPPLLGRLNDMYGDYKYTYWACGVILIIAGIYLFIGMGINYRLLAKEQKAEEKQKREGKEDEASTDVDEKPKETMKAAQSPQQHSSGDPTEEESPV

[2] = biological target: T1, mitochondrial monocarboxylate transporter 1 (mouse (endogenous in mouse skeletal muscle and C2C12 cells)); test: proximity ligation; Duolink II in situ proximity ligation (<40 nm) in fixed, permeabilised C2C12 myoblasts; mouse anti-MCT1 and rabbit anti-MPC1 antibodies; MCT1 and CD147 as positive control; red signal, confocal microscopy
[3] = biological target: T1, mitochondrial monocarboxylate transporter 1 (mouse (endogenous in mouse skeletal muscle and C2C12 cells)); test: proximity ligation; Duolink in situ proximity ligation with green detection reagents in C2C12 myotubes (differentiated five days in 2% horse serum), stained with MitoTracker Red CMXRos and Hoechst 33342, fixed; confocal microscopy

Measured: binding

B1: mitochondrial pyruvate carrier 1 (protein, UniProt P63030 1-109)
chain: MAGALVRKAADYVRSKDFRDYLMSTHFWGPVANWGLPIAAINDMKKSPEIISGRMTFALCCYSLTFMRFAYKVQPRNWLLFACHVTNEVAQLIQGGRLINYEMSKRPSA
binds: [1] | [2] | [3]

Reference: PMC12145959
